Experimental data published in PMC9338922, “DltC acts as an interaction hub for AcpS, DltA and DltB in the teichoic acid D-alanylation pathway of Lactiplantibacillus plantarum” (Scientific Reports, 2022).
Results are given in words; binding and its absence hold for the method and conditions named. Where a sequence is shown, tags or fusion partners need not be part of it.

Key:
[1] = biological target: T1, apo-DltC1-S38A, C-terminal His6 tag (Lactiplantibacillus plantarum) (UniProt Q88VM8); test: MST; one protein labelled with NHS red fluorescent dye (RED-NHS Monolith NT kit); Hepes 25 mM pH 7.5, NaCl 300 mM, Tween20 0.05%; 22 °C; triplicate; both purified
T1 sequence: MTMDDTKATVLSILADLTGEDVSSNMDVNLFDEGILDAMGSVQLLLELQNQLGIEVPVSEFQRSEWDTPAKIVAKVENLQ

[2] = biological target: T1, apo-DltC1-S38A, C-terminal His6 tag (Lactiplantibacillus plantarum); test: NMR titration; unlabelled DltA proteins added to 15N-labelled apo- or holo-DltC1 (150 to 300 μM); 1H,15N BEST-TROSY, 25 °C, 20 mM HEPES pH 6.5, 150 mM NaCl, 7% D2O; both purified

B1: DltA-5 M mutant (K366A, K369A, D401A, Y435A, K440A), C-terminal His6 tag (enzyme, UniProt Q88VM6 1-508)
chain: MIKNIITTIDDYARTQPNNVVYDVQGVTHTYAELKAYSDALAAHLDTLDLPAKDPIIVFGGQTFEMIATFLGVVKSGRAYIPIDTHSPNERLTMINEIAKPAAVIAVADLPTGVGTTPVITPDQLAAIFATPVDYQADHVVSGDDNYYIIFTSGTTGMPKGVQISHDNLVSYVDWMLSDDFGLPDQPNSLSQPPYSFDLSVMDVYPTLALGGTLYALPKAVTDDFKQLFAALPTLPINVWVSTPSFMDICLLEPKFNAENLPTLTHFLFCGEELTHKTAATLKKRFPDARIFNTYGPTETCVAVTQIEITDAALAQYDRLPIGYAKADTRILVVDENGEAVPNGTEGELIIAGPSVSKGYLNNSEATAAAFFELDGQPAYHSGDIGTMDADGLFRYRGRVAFQIKMHGYRIELEEVDHFLAQQQHIKQAVAVPKADKEHAVTQMIAYVVPKPNDFESDFALTTAIKKDLQGMMMEYMIPQRFVYQTSLPLTPNGKIDVKSIIKEVNPE
[1]
  binding: no binding
[2]
  binding: no binding (tested: protein-to-protein ratio up to 1.8)
